Assay results reported in PubChem BioAssay AID485297 (National Center for Advancing Translational Sciences (NCATS), 2010).
Among all 320,000 compounds or so, about 9,100 (2.8%) were called active. Listed are the inconclusive results; actives and inactives stand elsewhere. The call rests on the fitted dose curve; in most records, active means well fitted activation curve with a large enough effect; inconclusive means small, poorly fitted or top-dose-only effect; inactive means no such curve, though single readings can be large or run the other way.

assay: qHTS Assay for Rab9 Promoter Activators; conditions: Huh7 Rab9 promoter-luciferase reporter, luminescence, 24 h; further: nearly all actives have a fitted effect of over 60% in size
Potency means the concentration at half of the fitted maximal effect.

| Structure (SMILES) | Potency |
| --- | --- |
| Cc1nc2ccc3ccccc3c2o1.O=[N+]([O-])c1cc([N+](=O)[O-])c(O)c([N+](=O)[O-])c1 | inconclusive: 4.47 µM |
